The data scatter; read single values as rough.

The series concerns Sindbis virus TE/5'2J-GFP. In words: percent infected (GFP+ in RFP+ ISG-expressing cells); higher = more infection (less antiviral activity). Conditions: experiment: primary screen (single well).

As for “MAQAPADPGREGHLEQRILQVLTEAGSPVKLAQLVKECQAPKRELNQVLYRMKKELKVSLTSPATWCLGGTDPEGEGPAELALSSPAERPQQHAATIPETPGPQFSQQREEDIYRFLKDNGPQRALVIAQALGMRTAKDVNRDLYRMKSRHLLDMDEQSKAWTIYRPEDSGRRAKSASIIYQHNPINMICQNGPNSWISIANSEAIQIGHGNIITRQTVSREDGSAGPRHLPSMAPGDSSTWGTLVDPWGPQDIHMEQSILRRVQLGHSNEMRLHGVPSEGPAHIPPGSPPVSATAAGPEASFEARIPSPGTHPEGEAAQRIHMKSCFLEDATIGNSNKMSISPGVAGPGGVAGSGEGEPGEDAGRRPADTQSRSHFPRDIGQPITPSHSKLTPKLETMTLGNRSHKAAEGSHYVDEASHEGSWWGGGI [ZBP1]”, the percent infected runs as follows: (BHK/HA-Zeo (control)) 96.9%; (BHK/NZAP-Zeo (ZAP)) 96.8%.
On to “MAPISLSWLLRLATFCHLTVLLAGQHHGVTKCNITCSKMTSKIPVALLIHYQQNQASCGKRAIILETRQHRLFCADPKEQWVKDAMQHLDRQAAALTRNGGTFEKQIGEVKPRTTPAAGGMDESVVLEPEATGESSSLEPTPSSQEAQRALGTSPELPTGVTGSSGTRLPPTPKAQDGGPVGTELFRVPPVSTAATWQSSAPHQPGPSLWAEAKTSEAPSTQDPSTQASTASSPAPEENAPSEGQRVWGQGQSPRPENSLEREEMGPVPAHTDAFQDWGPGSMAHVSVVPVSSEGTPSREPVASGSWTPKAEEPIHATMDPQRLGVLITPVPDAQAATRRQAVGLLAFLGLLFCLGVAMFTYQSLQGCPRKMAGEMAEGLRYIPRSCGSNSYVLVPV [CX3CL1]”, for which the percent infected runs as follows: (BHK/HA-Zeo (control)) 98.8%; (BHK/NZAP-Zeo (ZAP)) 95.8%.
As for “MQTCPLAFPGHVSQALGTLLFLAASLSAQNEGWDSPICTEGVVSVSWGENTVMSCNISNAFSHVNIKLRAHGQESAIFNEVAPGYFSRDGWQLQVQGGVAQLVIKGARDSHAGLYMWHLVGHQRNNRQVTLEVSGAEPQSAPDTGFWPVPAVVTAVFILLVALVMFAWYRCRCSQQRREKKFFLLEPQMKVAALRAGAQQGLSRASAELWTPDSEPTPRPLALVFKPSPLGALELLSPQPLFPYAADP [SECTM1]”, the percent infected reads like this: (BHK/HA-Zeo (control)) 97.6%; (BHK/NZAP-Zeo (ZAP)) 91.6%.
The like results for “MMFRDQVGVLAGWFKGWNECEQTVALLSLLKRVSQTQARFLQLCLEHSLADCAELHVLEREANSPGIINQWQQESKDKVISLLLTHLPLLKPGNLDAKVEYMKLLPKILAHSIEHNQHIEESRQLLSYALIHPATSLEDRSALAMWLNHLEDRTSTSFGGQNRGRSDSVDYGQTHYYHQRQNSDDKLNGWQNSRDSGICINASNWQDKSMGCENGHVPLYSSSSVPTTINTIGTSTSTILSGQAHHSPLKRSVSLTPPMNVPNQPLGHGWMSHEDLRARGPQCLPSDHAPLSPQSSVASSGSGGSEHLEDQTTARNTFQEEGSGMKDVPAWLKSLRLHKYAALFSQMTYEEMMALTECQLEAQNVTKGARHKIVISIQKLKERQNLLKSLERDIIEGGSLRIPLQELHQMILTPIKAYSSPSTTPEARRREPQAPRQPSLMGPESQSPDCKDGAAATGATATPSAGASGGLQPHQLSSCDGELAVAPLPEGDLPGQFTRVMGKVCTQLLVSRPDEENISSYLQLIDKCLIHEAFTETQKKRLLSWKQQVQKLFRSFPRKTLLDISGYRQQRNRGFGQSNSLPTAGSVGGGMGRRNPRQYQIPSRNVPSARLGLLGTSGFVSSNQRNTTATPTIMKQGRQNLWFANPGGSNSMPSRTHSSVQRTRSLPVHTSPQNMLMFQQPEFQLPVTEPDINNRLESLCLSMTEHALGDGVDRTSTI [SAMD4A]” were, in that order, 97.5% and 61.7%.
Turning to “MSAPLDAALHALQEEQARLKMRLWDLQQLRKELGDSPKDKVPFSVPKIPLVFRGHTQQDPEVPKSLVSNLRIHCPLLAGSALITFDDPKVAEQVLQQKEHTINMEECRLRVQVQPLELPMVTTIQMSSQLSGRRVLVTGFPASLRLSEEELLDKLEIFFGKTRNGGGDVDVRELLPGSVMLGFARDGVAQRLCQIGQFTVPLGGQQVPLRVSPYVNGEIQKAEIRSQPVPRSVLVLNIPDILDGPELHDVLEIHFQKPTRGGGEVEALTVVPQGQQGLAVFTSESG [IFI35]”, the percent infected runs as follows: (BHK/HA-Zeo (control)) 96.8%; (BHK/NZAP-Zeo (ZAP)) 93.7%.
In turn, “MALLLALSLLVLWTSPAPTLSGTNDAEDCCLSVTQKPIPGYIVRNFHYLLIKDGCRVPAVVFTTLRGRQLCAPPDQPWVERIIQRLQRTSAKMKRRSS [CCL19]” returned a percent infected (BHK/NZAP-Zeo (ZAP)) of 70.5%.
Consider “MASEIHMTGPMCLIENTNGRLMANPEALKILSAITQPMVVVAIVGLYRTGKSYLMNKLAGKKKGFSLGSTVQSHTKGIWMWCVPHPKKPGHILVLLDTEGLGDVEKGDNQNDSWIFALAVLLSSTFVYNSIGTINQQAMDQLYYVTELTHRIRSKSSPDENENEVEDSADFVSFFPDFVWTLRDFSLDLEADGQPLTPDEYLTYSLKLKKGTSQKDETFNLPRLCIRKFFPKKKCFVFDRPVHRRKLAQLEKLQDEELDPEFVQQVADFCSYIFSNSKTKTLSGGIQVNGPRLESLVLTYVNAISSGDLPCMENAVLALAQIENSAAVQKAIAHYEQQMGQKVQLPTETLQELLDLHRDSEREAIEVFIRSSFKDVDHLFQKELAAQLEKKRDDFCKQNQEASSDRCSALLQVIFSPLEEEVKAGIYSKPGGYRLFVQKLQDLKKKYYEEPRKGIQAEEILQTYLKSKESMTDAILQTDQTLTEKEKEIEVERVKAESAQASAKMLQEMQRKNEQMMEQKERSYQEHLKQLTEKMENDRVQLLKEQERTLALKLQEQEQLLKEGFQKESRIMKNEIQDLQTKMRRRKACTIS [GBP1]”, for which the percent infected is 95.1% (BHK/HA-Zeo (control)) and 89.2% (BHK/NZAP-Zeo (ZAP)).
As to “MSQWYELQQLDSKFLEQVHQLYDDSFPMEIRQYLAQWLEKQDWEHAANDVSFATIRFHDLLSQLDDQYSRFSLENNFLLQHNIRKSKRNLQDNFQEDPIQMSMIIYSCLKEERKILENAQRFNQAQSGNIQSTVMLDKQKELDSKVRNVKDKVMCIEHEIKSLEDLQDEYDFKCKTLQNREHETNGVAKSDQKQEQLLLKKMYLMLDNKRKEVVHKIIELLNVTELTQNALINDELVEWKRRQQSACIGGPPNACLDQLQNWFTIVAESLQQVRQQLKKLEELEQKYTYEHDPITKNKQVLWDRTFSLFQQLIQSSFVVERQPCMPTHPQRPLVLKTGVQFTVKLRLLVKLQELNYNLKVKVLFDKDVNERNTVKGFRKFNILGTHTKVMNMEESTNGSLAAEFRHLQLKEQKNAGTRTNEGPLIVTEELHSLSFETQLCQPGLVIDLETTSLPVVVISNVSQLPSGWASILWYNMLVAEPRNLSFFLTPPCARWAQLSEVLSWQFSSVTKRGLNVDQLNMLGEKLLGPNASPDGLIPWTRFCKENINDKNFPFWLWIESILELIKKHLLPLWNDGCIMGFISKERERALLKDQQPGTFLLRFSESSREGAITFTWVERSQNGGEPDFHAVEPYTKKELSAVTFPDIIRNYKVMAAENIPENPLKYLYPNIDKDHAFGKYYSRPKEAPEPMELDGPKGTGYIKTELISVSEVHPSRLQTTDNLLPMSPEEFDEVSRIVGSVEFDSMMNTV [STAT1]”, the percent infected runs as follows: (BHK/HA-Zeo (control)) 98.3%; (BHK/NZAP-Zeo (ZAP)) 97.2%.
Regarding “MSSILPFTPPIVKRLLGWKKGEQNGQEEKWCEKAVKSLVKKLKKTGQLDELEKAITTQNVNTKCITIPRSLDGRLQVSHRKGLPHVIYCRLWRWPDLHSHHELRAMELCEFAFNMKKDEVCVNPYHYQRVETPVLPPVLVPRHTEIPAEFPPLDDYSHSIPENTNFPAGIEPQSNIPETPPPGYLSEDGETSDHQMNHSMDAGSPNLSPNPMSPAHNNLDLQPVTYCEPAFWCSISYYELNQRVGETFHASQPSMTVDGFTDPSNSERFCLGLLSNVNRNAAVELTRRHIGRGVRLYYIGGEVFAECLSDSAIFVQSPNCNQRYGWHPATVCKIPPGCNLKIFNNQEFAALLAQSVNQGFEAVYQLTRMCTIRMSFVKGWGAEYRRQTVTSTPCWIELHLNGPLQWLDKVLTQMGSPSIRCSSVS [SMAD3]”, the percent infected by setting is: (BHK/HA-Zeo (control)) 88%; (BHK/NZAP-Zeo (ZAP)) 66.7%.
Take PIM3: the percent infected reads like this: (BHK/HA-Zeo (control)) 98.2%; (BHK/NZAP-Zeo (ZAP)) 97.1%.
In turn, “MAKRNAEKELTDRNWDQEDEAEEVGTFSMASEEVLKNRAIKKAKRRNVGFESDTGGAFKGFKGLVVPSGGGRFSGFGSGAGGKPLEGLSNGNNITSAPPFASAKAAADPKVAFGSLAANGPTTLVDKVSNPKTNGDSQQPSSSGLASSKACVGNAYHKQLAALNCSVRDWIVKHVNTNPLCDLTPIFKDYEKYLANIEQQHGNSGRNSESESNKVAAETQSPSLFGSTKLQQESTFLFHGNKTEDTPDKKMEVASEKKTDPSSLGATSASFNFGKKVDSSVLGSLSSVPLTGFSFSPGNSSLFGKDTTQSKPVSSPFPTKPLEGQAEGDSGECKGGDEEENDEPPKVVVTEVKEEDAFYSKKCKLFYKKDNEFKEKGIGTLHLKPTANQKTQLLVRADTNLGNILLNVLIPPNMPCTRTGKNNVLIVCVPNPPIDEKNATMPVTMLIRVKTSEDADELHKILLEKKDA [NUP50]” displayed a percent infected (BHK/HA-Zeo (control)) of 93.7% and a percent infected (BHK/NZAP-Zeo (ZAP)) of 89.5%.
On to “MLTELEKALNSIIDVYHKYSLIKGNFHAVYRDDLKKLLETECPQYIRKKGADVWFKELDINTDGAVNFQEFLILVIKMGVAAHKKSHEESHKE [S100A8]”, for which the percent infected (BHK/HA-Zeo (control)) turned out to be 94.8% and the percent infected (BHK/NZAP-Zeo (ZAP)) came out at 70.1%.
As to “MGERTLHAAVPTPGYPESESIMMAPICLVENQEEQLTVNSKALEILDKISQPVVVVAIVGLYRTGKSYLMNRLAGKRNGFPLGSTVQSETKGIWMWCVPHLSKPNHTLVLLDTEGLGDVEKSNPKNDSWIFALAVLLSSSFVYNSVSTINHQALEQLHYVTELAELIRAKSCPRPDEAEDSSEFASFFPDFIWTVRDFTLELKLDGNPITEDEYLENALKLIPGKNPKIQNSNMPRECIRHFFRKRKCFVFDRPTNDKQYLNHMDEVPEENLERHFLMQSDNFCSYIFTHAKTKTLREGIIVTGKRLGTLVVTYVDAINSGAVPCLENAVTALAQLENPAAVQRAADHYSQQMAQQLRLPTDTLQELLDVHAACEREAIAVFMEHSFKDENHEFQKKLVDTIEKKKGDFVLQNEEASAKYCQAELKRLSEHLTESILRGIFSVPGGHNLYLEEKKQVEWDYKLVPRKGVKANEVLQNFLQSQVVVEESILQSDKALTAGEKAIAAERAMKEAAEKEQELLREKQKEQQQMMEAQERSFQEYMAQMEKKLEEERENLLREHERLLKHKLKVQEEMLKEEFQKKSEQLNKEINQLKEKIESTKNEQLRLLKILDMASNIMIVTLPGASKLLGVGTKYLGSRI [GBP4]”, the percent infected (BHK/NZAP-Zeo (ZAP)) turned out to be 84.4%.
Turning to MAFF, the percent infected (BHK/HA-Zeo (control)) turned out to be 74.3% and the percent infected (BHK/NZAP-Zeo (ZAP)) amounted to 83.3%.
With “MSVKGMAIALAVILCATVVQGFPMFKRGRCLCIGPGVKAVKVADIEKASIMYPSNNCDKIEVIITLKENKGQRCLNPKSKQARLIIKKVERKNF [CXCL11]”, the percent infected runs as follows: (BHK/HA-Zeo (control)) 94.1%; (BHK/NZAP-Zeo (ZAP)) 88.6%.

(Values after the supplement of paper PMC3353916.)
